Experimental data reported in US20220340673A1.
Results are given in words; binding and its absence hold for the method and conditions named. Some entries that bind do so weakly or less than the wild type. One block for each binder: values may come before it.

Key:
[1] = target: cynomolgus monkey BCMA on cells (HEK293T/cynoBCMA) (cynomolgus monkey); experiment: FACS on HEK293T/cynoBCMA cells
[2] = target: cynomolgus monkey BCMA on cells (HEK293T/cynoBCMA) (cynomolgus monkey); experiment: FACS on HEK293T cell strain overexpressing cynomolgus monkey BCMA [B]

binding [1]: binds | binding [2]: binds
B1: anti-human BCMA HCAb monoclonal antibody PR001046 (antibody, human IgG1, V domains shown)
VH: EVQLVETGGGLIQPGGSLRLSCAASGFTVSDNYMTWVRQAPGKGLEWVSVIFSGGNTYYADSVKGRFTISRDNAKNTLYLQMNSLRAEDTALYYCARRNYDDTRGTDVFDIWGQGTMVTVSS

binding [1]: binds | binding [2]: binds
B2: positive control 1, PR000274 (anti-BCMA antibody CA8-J6M0 hIgG1) (antibody, V domains shown)
VH: QVQLVQSGAEVKKPGSSVKVSCKASGGTFSNYWMHWVRQAPGQGLEWMGATYRGHSDTYYNQKFKGRVTITADKSTSTAYMELSSLRSEDTAVYYCARGAIYDGYDVLDNWGQGTLVTVSS
VL: DIQMTQSPSSLSASVGDRVTITCSASQDISNYLNWYQQKPGKAPKLLIYYTSNLHSGVPSRFSGSGSGTDFTLTISSLQPEDFATYYCQQYRKLPWTFGQGTKLEIKR
